Paper PMC6113207
Results are given in words; binding and its absence hold for the method and conditions named. In cells and extracts the contact can be indirect. A yes stands for co-enrichment or nearness to the bait. Other partners may have been found.

Protein sequences, listed by entry. Tags and fused reporters are not part of them.
UniProt Q9H0J9: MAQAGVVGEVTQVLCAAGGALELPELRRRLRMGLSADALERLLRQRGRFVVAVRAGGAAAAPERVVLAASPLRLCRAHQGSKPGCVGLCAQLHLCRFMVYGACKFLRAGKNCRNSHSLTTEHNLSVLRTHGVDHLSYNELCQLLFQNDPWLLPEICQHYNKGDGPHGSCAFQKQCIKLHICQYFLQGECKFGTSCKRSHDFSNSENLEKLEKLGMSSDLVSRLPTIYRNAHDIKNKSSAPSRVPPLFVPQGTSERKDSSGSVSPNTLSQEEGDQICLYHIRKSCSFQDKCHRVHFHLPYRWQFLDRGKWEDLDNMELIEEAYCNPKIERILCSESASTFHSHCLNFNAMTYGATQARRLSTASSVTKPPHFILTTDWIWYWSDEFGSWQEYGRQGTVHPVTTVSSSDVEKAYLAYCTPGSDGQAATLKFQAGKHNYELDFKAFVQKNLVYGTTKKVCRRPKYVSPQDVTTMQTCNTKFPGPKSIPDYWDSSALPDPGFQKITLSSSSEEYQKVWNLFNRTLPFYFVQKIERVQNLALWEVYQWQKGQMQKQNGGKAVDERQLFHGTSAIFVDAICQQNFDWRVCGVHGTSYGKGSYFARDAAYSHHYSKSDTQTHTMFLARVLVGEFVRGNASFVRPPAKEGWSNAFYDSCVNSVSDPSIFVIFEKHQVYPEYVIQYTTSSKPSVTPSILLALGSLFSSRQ

Target: streptavidin-Flag-S protein (SFB)-tagged PARP12 (human) (UniProt Q9H0J9)
Test: affinity purification with mass spectrometry; tandem affinity purification of SFB-PARP12 from stably expressing HEK293T cells: NETN lysate, streptavidin beads, biotin elution, S beads, 4 °C; whole lanes analysed by mass spectrometry; SFB-tag cells as negative control

B1: four-and-a-half LIM-only protein 2 (FHL2), endogenous (protein, UniProt Q14192 1-279)
chain: MTERFDCHHCNESLFGKKYILREESPYCVVCFETLFANTCEECGKPIGCDCKDLSYKDRHWHEACFHCSQCRNSLVDKPFAAKEDQLLCTDCYSNEYSSKCQECKKTIMPGTRKMEYKGSSWHETCFICHRCQQPIGTKSFIPKDNQNFCVPCYEKQHAMQCVQCKKPITTGGVTYREQPWHKECFVCTACRKQLSGQRFTARDDFAYCLNCFCDLYAKKCAGCTNPISGLGGTKYISFEERQWHNDCFNCKKCSLSLVGRGFLTERDDILCPDCGKDI
- binding: binds
